From the supplement of paper PMC12889115 come the findings set out here.

The assay relates to Salmonella enterica serovar Typhimurium SL1344. As to the kind of experiment: bacterial growth OD600 after 18 h with compound and polymyxin B; higher = more bacterial growth (less inhibition). The settings on record: 50 µM, Mueller-Hinton broth.

This is one part of the list. These are raw signals, not scaled to a control.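 In the initial screen, polymyxin B was used at a concentration that permeabilizes Salmonella's outer membrane but not its inner membrane. Maximum growth was set by DMSO wells with or without polymyxin B. Since plates varied, data were ranked per plate, and compounds giving the lowest OD600 advanced as hits.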

For `COc1cccc(-c2cn3c(C(=O)N4CCN(C)C(C)C4)csc3n2)c1` (stereo not given), the “bacterial growth OD600” value (polymyxin B 0.75 µg/mL) is 0.785.

As for `CCOC(=O)CN(C)C1CCN(c2ccc(CC(=O)NCCc3cccc(F)c3)cc2)CC1`, the “bacterial growth OD600” value (polymyxin B 0.75 µg/mL) turned out to be 0.867. For the compound `O=C(CCC(F)(F)F)N1CCC(CCC(=O)N2CCC(Cc3ccccc3)CC2)CC1`, the “bacterial growth OD600” value (polymyxin B 1 µg/mL) was 0.824. In the case of `O=C(c1ccc(N2CCCC(O)C2)nc1)N1CCC(Cn2cccn2)CC1` (stereo not given), under “polymyxin B 0.75 µg/mL”, the “bacterial growth OD600” value is 0.798. In the case of `CN(CCc1ccccc1)C1CCN(c2ccc(C(=O)NCCN3CCOCC3)cc2)CC1`, the “bacterial growth OD600” value (polymyxin B 0.75 µg/mL) was determined as 0.875.

Consider `O=C(CCCn1cncn1)N1CCOC(Cc2ccccc2Cl)C1` (stereo not given), for which the “bacterial growth OD600” value (polymyxin B 0.75 µg/mL) came out at 0.985. As for `CN(CCOc1ccccc1)C(=O)c1cn(Cc2ccccc2F)nn1`, the “bacterial growth OD600” value (polymyxin B 1 µg/mL) came to 0.827. Regarding `CCOC(=O)C1(CCc2ccccc2)CCCN(C(=O)c2n[nH]c(=O)c3ccccc23)C1` (stereo not given), the “bacterial growth OD600” value (polymyxin B 1 µg/mL) was 0.757. As for `COc1ccc(-n2ncc(C(C)NCc3ccc(F)cc3Cl)c2C)cc1` (stereo not given), the “bacterial growth OD600” value (polymyxin B 0.75 µg/mL) stood at 0.772. Regarding `Cc1cc(C(=O)N2CCC(N3CCC(C(=O)NCCc4ccccc4)CC3)CC2)n(C)n1`, for the setting “polymyxin B 1 µg/mL”, the “bacterial growth OD600” value was determined as 0.735.

On to `CCc1ccc(CN2CCCC2C(=O)Nc2ccccc2Oc2cccnc2)o1` (stereo not given), for which, where the note is “polymyxin B 0.75 µg/mL”, the “bacterial growth OD600” value worked out at 0.433. Turning to `Cn1ccnc1CNC(=O)CC(c1cccc(O)c1)c1cccc(Cl)c1` (stereo not given), the “bacterial growth OD600” value (polymyxin B 1 µg/mL) turned out to be 0.787. `O=C(NCc1cccc(OC(F)(F)F)c1)C1CCC(=O)N(Cc2cccc(F)c2)C1` (stereo not given): under “polymyxin B 1 µg/mL”, the “bacterial growth OD600” value is 0.793. Take `Cn1c(C2CCCO2)nc2cc(NC(=O)CC3CCCC3)cc(C(=O)NCCCn3ccnc3)c21` (stereo not given): the “bacterial growth OD600” value (polymyxin B 0.75 µg/mL) was 0.991.

Regarding `COc1ccc(C(=O)Nc2ccnn2C2CCN(C(=O)C3=CCCC3)CC2)cc1`, for the setting “polymyxin B 1 µg/mL”, the “bacterial growth OD600” value came out at 0.936.

For `COc1ccccc1CCC(=O)Nc1cnn(CC(=O)NC(C)c2nc(-c3ccccc3)no2)c1` (stereo not given), the “bacterial growth OD600” value (polymyxin B 0.75 µg/mL) stood at 0.012. For `Cc1ccccc1Oc1ncccc1CNC(=O)CCN1CCOCC1`, the “bacterial growth OD600” value (polymyxin B 1 µg/mL) is 0.934. Turning to `O[C@@H]1CN(Cc2nccs2)CC[C@H]1N1CCN(CCc2ccccc2)CC1`, the “bacterial growth OD600” value (polymyxin B 1 µg/mL) was determined as 1.26. With `COc1ccc(Cl)cc1NC(=O)CCC1CCCN(C(=O)C2=CCCC2)C1` (stereo not given), for the setting “polymyxin B 0.75 µg/mL”, the “bacterial growth OD600” value was found to be 0.774. Still for that read-out and setting: under `CCC(C)C(=O)N1CCc2ccc(NC(=O)CCc3ccc(C)cc3)cc2C1` (stereo not given) stands 0.009.
